In US20260034222A1, “HYDROGEL COMPOSITION FOR THE TREATMENT OF PERITONEAL DISEASES” (UPyTher B.V., priority 2023, published 2026):
At least one structure is not confirmed: it was looked up by name or label, or the drawing left a doubt.

Experiment: TLR-agonist release from UPy-PEG hydrogels
Type: physicochemical
Conditions: Polymer 6, 6 and 10 wt %, 1.27 mM R848 (FIG. 11A)
Experimental: The TLR-agonist resiquimod (synonym R848) was loaded from a stock solution (50 mM in DMSO) to 1.27 mM in the hydrogel. The TLR-agonist telratolimod (synonym MEDI9197) was loaded from a stock solution (10 mM in DMSO) to 0.5 mM in the hydrogel.
The drug loaded solution (100 μL) was transferred to a Millicell insert, which was placed in a 24-wells plate filled with PBS pH 7.4 (700 μL). At set time points the PBS was refreshed and the removed PBS was analyzed for R848 content UV absorbance at 320 nm. For MEDI9197, PBS was substituted for a volatile ammonium carbonate buffer and a HPLC-MS method was used. Release experiments were performed with n=3.

CCOCc1nc2c(N)nc3ccccc3c2n1CC(C)(C)O [Polymer R848, resiquimod]
time within which most of the drug is released: ≤ 24 h
